From patent EP1662255A2
Substitutions are numbered along the chain they refer to. These are yes or no findings as the source states them, for the method shown. Binding seen in cells or lysates may run through a third protein. Some results given as binding are weak or reduced against the parent protein; the word gives no strength.

Sequences of proteins named here, by UniProt entry; tags and fusion partners are left off. Residues count along the entry.
UniProt P23385, residues 19-1199: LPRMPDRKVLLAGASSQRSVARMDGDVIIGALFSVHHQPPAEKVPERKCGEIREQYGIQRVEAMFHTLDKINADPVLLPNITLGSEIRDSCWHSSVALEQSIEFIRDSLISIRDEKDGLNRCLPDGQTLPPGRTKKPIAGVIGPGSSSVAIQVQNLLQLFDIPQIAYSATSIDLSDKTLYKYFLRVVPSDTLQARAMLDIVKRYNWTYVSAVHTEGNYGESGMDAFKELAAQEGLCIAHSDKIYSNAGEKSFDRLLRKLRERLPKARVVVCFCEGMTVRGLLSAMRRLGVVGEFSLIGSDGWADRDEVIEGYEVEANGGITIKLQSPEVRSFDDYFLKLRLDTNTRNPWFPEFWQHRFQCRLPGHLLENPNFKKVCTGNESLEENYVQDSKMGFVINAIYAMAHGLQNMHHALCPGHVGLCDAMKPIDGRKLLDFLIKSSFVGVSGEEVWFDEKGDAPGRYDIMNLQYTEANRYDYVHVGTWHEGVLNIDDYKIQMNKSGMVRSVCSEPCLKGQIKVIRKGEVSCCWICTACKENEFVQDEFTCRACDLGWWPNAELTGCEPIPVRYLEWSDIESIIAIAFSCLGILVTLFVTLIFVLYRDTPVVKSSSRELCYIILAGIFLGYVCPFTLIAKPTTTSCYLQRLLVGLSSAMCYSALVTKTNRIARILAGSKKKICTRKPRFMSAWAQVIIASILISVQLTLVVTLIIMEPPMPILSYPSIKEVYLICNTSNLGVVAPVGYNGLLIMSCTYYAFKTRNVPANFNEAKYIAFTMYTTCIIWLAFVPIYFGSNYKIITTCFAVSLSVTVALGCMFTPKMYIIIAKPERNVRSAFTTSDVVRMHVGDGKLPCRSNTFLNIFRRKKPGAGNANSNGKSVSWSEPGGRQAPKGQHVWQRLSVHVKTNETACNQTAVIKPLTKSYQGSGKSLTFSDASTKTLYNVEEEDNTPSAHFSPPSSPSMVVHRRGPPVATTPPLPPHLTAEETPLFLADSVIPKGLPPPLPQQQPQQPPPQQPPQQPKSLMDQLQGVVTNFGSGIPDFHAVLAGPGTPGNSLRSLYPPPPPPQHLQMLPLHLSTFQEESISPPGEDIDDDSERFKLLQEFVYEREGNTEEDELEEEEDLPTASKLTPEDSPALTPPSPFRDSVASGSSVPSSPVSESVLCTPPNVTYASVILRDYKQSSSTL
UniProt P29994: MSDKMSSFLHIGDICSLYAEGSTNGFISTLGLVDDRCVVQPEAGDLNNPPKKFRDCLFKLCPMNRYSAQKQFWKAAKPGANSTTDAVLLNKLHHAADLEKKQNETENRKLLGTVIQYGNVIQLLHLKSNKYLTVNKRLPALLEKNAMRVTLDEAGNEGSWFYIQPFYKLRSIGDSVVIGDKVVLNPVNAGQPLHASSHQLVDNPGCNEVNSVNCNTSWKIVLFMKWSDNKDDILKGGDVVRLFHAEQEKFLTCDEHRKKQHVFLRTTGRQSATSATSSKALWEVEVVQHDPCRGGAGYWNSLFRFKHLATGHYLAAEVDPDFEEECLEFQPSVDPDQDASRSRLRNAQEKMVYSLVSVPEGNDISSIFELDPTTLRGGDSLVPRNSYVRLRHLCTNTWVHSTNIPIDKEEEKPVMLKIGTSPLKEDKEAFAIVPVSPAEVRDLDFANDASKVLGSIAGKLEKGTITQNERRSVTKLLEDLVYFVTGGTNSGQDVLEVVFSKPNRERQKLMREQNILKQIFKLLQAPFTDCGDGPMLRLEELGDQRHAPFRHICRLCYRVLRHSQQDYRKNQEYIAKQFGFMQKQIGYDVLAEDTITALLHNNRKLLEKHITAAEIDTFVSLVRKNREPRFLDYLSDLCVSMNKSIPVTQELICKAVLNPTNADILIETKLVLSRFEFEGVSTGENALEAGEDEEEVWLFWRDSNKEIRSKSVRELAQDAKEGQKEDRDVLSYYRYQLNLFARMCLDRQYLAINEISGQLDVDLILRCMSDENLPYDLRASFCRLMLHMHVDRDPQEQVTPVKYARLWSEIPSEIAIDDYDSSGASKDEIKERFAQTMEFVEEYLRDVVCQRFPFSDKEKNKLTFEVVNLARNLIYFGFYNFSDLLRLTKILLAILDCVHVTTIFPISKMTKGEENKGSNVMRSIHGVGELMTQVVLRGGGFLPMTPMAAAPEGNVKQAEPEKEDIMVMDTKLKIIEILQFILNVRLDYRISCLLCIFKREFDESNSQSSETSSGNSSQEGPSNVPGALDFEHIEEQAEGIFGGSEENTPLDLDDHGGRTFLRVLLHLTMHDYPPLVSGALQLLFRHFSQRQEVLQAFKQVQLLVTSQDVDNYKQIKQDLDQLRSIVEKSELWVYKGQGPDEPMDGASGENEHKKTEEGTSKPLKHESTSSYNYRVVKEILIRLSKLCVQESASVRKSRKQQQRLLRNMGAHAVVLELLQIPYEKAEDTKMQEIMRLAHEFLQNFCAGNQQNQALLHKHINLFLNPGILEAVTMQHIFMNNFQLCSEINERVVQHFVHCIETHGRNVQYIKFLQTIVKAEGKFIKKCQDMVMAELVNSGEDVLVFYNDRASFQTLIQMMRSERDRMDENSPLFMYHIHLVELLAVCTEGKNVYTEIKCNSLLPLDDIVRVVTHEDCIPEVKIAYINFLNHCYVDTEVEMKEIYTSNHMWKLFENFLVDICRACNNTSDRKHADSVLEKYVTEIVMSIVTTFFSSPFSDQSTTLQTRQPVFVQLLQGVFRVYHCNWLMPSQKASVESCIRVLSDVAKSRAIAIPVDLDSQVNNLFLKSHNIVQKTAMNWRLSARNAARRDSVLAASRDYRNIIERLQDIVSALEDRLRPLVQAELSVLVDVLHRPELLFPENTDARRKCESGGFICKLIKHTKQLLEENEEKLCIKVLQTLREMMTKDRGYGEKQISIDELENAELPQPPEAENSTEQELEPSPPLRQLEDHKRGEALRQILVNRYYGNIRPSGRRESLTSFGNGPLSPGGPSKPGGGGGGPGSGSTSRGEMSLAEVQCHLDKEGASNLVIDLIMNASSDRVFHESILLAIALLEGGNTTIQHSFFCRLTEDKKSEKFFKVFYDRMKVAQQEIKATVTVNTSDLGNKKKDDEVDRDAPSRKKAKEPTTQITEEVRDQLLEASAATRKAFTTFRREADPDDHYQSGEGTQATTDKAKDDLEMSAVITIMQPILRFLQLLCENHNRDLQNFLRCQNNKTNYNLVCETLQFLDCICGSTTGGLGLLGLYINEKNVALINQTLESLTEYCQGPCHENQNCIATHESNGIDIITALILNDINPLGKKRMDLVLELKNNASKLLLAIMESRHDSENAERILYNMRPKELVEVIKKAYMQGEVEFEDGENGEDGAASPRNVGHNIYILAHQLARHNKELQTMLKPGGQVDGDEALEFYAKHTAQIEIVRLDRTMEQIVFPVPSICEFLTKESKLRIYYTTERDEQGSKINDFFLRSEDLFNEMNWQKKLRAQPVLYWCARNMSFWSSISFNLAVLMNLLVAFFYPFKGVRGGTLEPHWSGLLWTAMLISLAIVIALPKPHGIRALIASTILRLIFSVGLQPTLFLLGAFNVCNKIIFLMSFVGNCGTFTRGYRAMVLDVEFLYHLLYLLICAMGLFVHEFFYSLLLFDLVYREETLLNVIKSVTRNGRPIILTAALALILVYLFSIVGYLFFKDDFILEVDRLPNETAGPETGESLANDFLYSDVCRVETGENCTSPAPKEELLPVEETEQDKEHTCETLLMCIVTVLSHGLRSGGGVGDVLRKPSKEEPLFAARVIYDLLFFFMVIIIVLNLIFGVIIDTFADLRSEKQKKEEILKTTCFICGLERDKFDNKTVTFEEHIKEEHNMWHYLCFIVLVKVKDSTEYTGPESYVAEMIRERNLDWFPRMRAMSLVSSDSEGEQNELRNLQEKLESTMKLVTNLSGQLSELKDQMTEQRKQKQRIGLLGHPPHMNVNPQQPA
UniProt Q3UVX5, residues 19-1203: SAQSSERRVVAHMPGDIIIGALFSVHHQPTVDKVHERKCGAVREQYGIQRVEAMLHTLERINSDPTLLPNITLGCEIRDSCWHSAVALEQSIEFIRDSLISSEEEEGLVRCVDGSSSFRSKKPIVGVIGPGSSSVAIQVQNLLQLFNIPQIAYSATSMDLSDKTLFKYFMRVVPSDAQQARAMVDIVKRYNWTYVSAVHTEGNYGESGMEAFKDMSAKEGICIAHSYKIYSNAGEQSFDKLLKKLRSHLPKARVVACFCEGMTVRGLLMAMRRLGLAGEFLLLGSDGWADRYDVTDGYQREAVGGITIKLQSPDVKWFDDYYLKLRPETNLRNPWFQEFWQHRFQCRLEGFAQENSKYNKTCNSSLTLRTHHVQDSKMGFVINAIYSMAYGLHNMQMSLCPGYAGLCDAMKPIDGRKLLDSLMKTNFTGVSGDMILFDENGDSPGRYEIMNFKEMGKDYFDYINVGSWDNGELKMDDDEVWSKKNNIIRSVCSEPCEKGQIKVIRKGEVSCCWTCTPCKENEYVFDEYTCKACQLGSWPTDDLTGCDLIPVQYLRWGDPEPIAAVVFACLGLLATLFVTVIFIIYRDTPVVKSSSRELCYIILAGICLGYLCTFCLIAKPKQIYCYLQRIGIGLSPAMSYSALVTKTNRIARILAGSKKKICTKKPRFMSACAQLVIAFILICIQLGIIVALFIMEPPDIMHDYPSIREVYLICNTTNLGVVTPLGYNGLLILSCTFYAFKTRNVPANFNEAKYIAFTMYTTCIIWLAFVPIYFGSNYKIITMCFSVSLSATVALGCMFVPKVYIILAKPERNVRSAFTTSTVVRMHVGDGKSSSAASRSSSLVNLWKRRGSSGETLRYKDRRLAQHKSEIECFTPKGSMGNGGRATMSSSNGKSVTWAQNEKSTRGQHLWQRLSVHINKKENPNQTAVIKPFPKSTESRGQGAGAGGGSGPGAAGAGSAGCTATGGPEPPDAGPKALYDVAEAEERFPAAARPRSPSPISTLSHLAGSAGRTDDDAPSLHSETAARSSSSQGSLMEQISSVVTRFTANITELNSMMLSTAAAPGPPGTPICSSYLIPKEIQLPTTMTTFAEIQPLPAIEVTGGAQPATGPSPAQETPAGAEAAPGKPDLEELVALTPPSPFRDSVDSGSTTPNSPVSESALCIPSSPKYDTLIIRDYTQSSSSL

B1: Homer 1b/c (native, rat brain extracts) (protein, UniProt Q9Z214 2-366, looked up)
chain: GEQPIFSTRAHVFQIDPNTKKNWVPTSKHAVTVSYFYDSTRNVYRIISLDGSKAIINSTITPNMTFTKTSQKFGQWADSRANTVYGLGFSSEHHLSKFAEKFQEFKEAARLAKEKSQEKMELTSTPSQESAGGDLQSPLTPESINGTDDERTPDVTQNSEPRAEPAQNALPFSHSAGDRTQGLSHASSAISKHWEAELATLKGNNAKLTAALLESTANVKQWKQQLAAYQEEAERLHKRVTELECVSSQANAVHSHKTELSQTVQELEETLKVKEEEIERLKQEIDNARELQEQRDSLTQKLQEVEIRNKDLEGQLSELEQRLEKSQSEQDAFRSNLKTLLEILDGKIFELTELRDNLAKLLECS
B2: Homer 2a/b (native, rat brain extracts) (protein, UniProt O88801 1-354, looked up)
chain: MGEQPIFTTRAHVFQIDPSTKKNWVPASKQAVTVSYFYDVTRNSYRIISVDGAKVIINSTITPNMTFTKTSQKFGQWADSRANTVFGLGFSSEQQLTKFAEKFQEVREAARLARDKSQEKIETSSNHSQESGCETPSSTQASSVNGTDDEKASHASPADTHLKSENDKLKIALTQSAANVKKWEIELQTLRESNARLTTALQESAASVEQWKRQFSICRDENDRLRSKIEELEEQCGEINREKEKNTQLKRRIEELESEVREKEMELKDLRKQSEIIPQLMSECEYVSEKLEAAERDNQNLEDKVRSLKTDIEESKYRQRHLKGELKSFLEVLDGKIDDLHDFRRGLSKLGTDN
B3: Homer 3 (native, rat brain extracts) (protein, UniProt Q9Z2X5 1-358, looked up)
chain: MSTAREQPIFSTRAHVFQIDPATKRNWIPAGKHALTVSYFYDATRNVYRIISIGGAKAIINSTVTPNMTFTKTSQKFGQWADSRANTVYGLGFGSEQQLTQFAEKFQEVKEAARLAREKSQDGGELTSTALAMASHQVPPSPLVSTNGPEEKLFRSQSADAPGPTERERLKKMLSEGSVGEVQWEAEFFALQDSNQRLAGALREANAAATQWRQQLEVQRAEAEHLRQRVAELEAQVAAEPVRAGEKEATSQSVEQLEARVQTKDQEIQTLKNQSTGPREAPDTAEREETQQQVQDLETRNAELEQQLRAMESNLEEARAERERARAEVGRAAQLLDVRLFELSELREGLARLAEAAP
B4: Homer 1b/c (native, mouse forebrain extracts) (protein, UniProt Q9Z2Y3 2-366, looked up)
chain: B1 chain with A166T, S173P, G182A, S261N, E318D, S328N, D331E
B5: Homer 2a/b (native, mouse forebrain extracts), Q9QWW1 1-354 (protein, UniProt Q9QWW1 1-354, looked up)
chain: B2 chain with Q94L, I121T, I185M, G237S, E262D

Columns and labels:
[1] = biological target: mGluR1α (native, rat cerebellum extracts) (rat) (UniProt P23385); assay: co-immunoprecipitation from adult rat cerebellum
[2] = biological target: T1, Homer 3 (native, rat brain extracts) (rat) (UniProt Q9Z2X5); assay: co-immunoprecipitation from cerebellum
T1 sequence (looked up): B3 chain

[3] = biological target: inositol trisphosphate receptor (rat or mouse) (UniProt P29994); assay: co-immunoprecipitation from cerebellum
[4] = biological target: inositol trisphosphate receptor (rat or mouse) (UniProt P29994); assay: co-immunoprecipitation from cerebellum (CHAPS extract)
[5] = biological target: mGluR5 (native, mouse forebrain extracts) (mouse) (UniProt Q3UVX5); assay: co-immunoprecipitation from wild type mouse forebrain
[6] = biological target: mGluR5 (native, mouse forebrain extracts) (mouse), Q3UVX5; assay: co-immunoprecipitation from mouse forebrain; similar in wild type and Homer 1a transgenic mice; settings: remark: other sources report otherwise

| Binder | binding [1] | binding [2] | binding [3] | binding [4] | binding [5] | binding [6] |
| --- | --- | --- | --- | --- | --- | --- |
| B1 | binds | binds | binds | binds | – | – |
| B2 | binds | – | binds | binds | – | – |
| B3 | binds | – | binds | binds | – | – |
| B4 | – | – | – | – | binds | – |
| B5 | – | – | – | – | – | binds |
